Results are given in words; binding and its absence hold for the method and conditions named. In cells and extracts the contact can be indirect. Some binding calls cover weakened binding; strength is not graded here. For some of these results: Tags and fused reporters may be left off the sequences shown.
What was measured:
[1] = target: ZEITLUPE (ZTL), TAP-tagged, transiently overexpressed in Nicotiana benthamiana (Arabidopsis thaliana) (UniProt Q94BT6); assay: co-IP; proteins transiently co-expressed in Nicotiana benthamiana leaves (3 days under LDs); TAP-tagged protein immunoprecipitated with anti-Protein A antibody, HA-tagged protein detected with anti-HA
[2] = target: FKF1 (FLAVIN-BINDING, KELCH REPEAT, F-BOX 1), wild type, transiently overexpressed in Nicotiana benthamiana (Arabidopsis thaliana) (UniProt Q9C9W9); assay: as above
[3] = target: CONSTANS (CO), TAP-tagged, transiently overexpressed in Nicotiana benthamiana (Arabidopsis thaliana) (UniProt Q39057); assay: as above
[4] = target: T1, GIGANTEA (GI), TAP-tagged, expressed from the GI promoter in transgenic Arabidopsis (Arabidopsis thaliana) (UniProt Q9SQI2); assay: co-IP; 10-day-old transgenic Arabidopsis seedlings under LDs, harvested at ZT12; GI-TAP immunoprecipitated with anti-Protein A antibody, HA-FKF1 detected with anti-HA; also under white, red or blue light (Supplementary Fig. S3)
T1 sequence: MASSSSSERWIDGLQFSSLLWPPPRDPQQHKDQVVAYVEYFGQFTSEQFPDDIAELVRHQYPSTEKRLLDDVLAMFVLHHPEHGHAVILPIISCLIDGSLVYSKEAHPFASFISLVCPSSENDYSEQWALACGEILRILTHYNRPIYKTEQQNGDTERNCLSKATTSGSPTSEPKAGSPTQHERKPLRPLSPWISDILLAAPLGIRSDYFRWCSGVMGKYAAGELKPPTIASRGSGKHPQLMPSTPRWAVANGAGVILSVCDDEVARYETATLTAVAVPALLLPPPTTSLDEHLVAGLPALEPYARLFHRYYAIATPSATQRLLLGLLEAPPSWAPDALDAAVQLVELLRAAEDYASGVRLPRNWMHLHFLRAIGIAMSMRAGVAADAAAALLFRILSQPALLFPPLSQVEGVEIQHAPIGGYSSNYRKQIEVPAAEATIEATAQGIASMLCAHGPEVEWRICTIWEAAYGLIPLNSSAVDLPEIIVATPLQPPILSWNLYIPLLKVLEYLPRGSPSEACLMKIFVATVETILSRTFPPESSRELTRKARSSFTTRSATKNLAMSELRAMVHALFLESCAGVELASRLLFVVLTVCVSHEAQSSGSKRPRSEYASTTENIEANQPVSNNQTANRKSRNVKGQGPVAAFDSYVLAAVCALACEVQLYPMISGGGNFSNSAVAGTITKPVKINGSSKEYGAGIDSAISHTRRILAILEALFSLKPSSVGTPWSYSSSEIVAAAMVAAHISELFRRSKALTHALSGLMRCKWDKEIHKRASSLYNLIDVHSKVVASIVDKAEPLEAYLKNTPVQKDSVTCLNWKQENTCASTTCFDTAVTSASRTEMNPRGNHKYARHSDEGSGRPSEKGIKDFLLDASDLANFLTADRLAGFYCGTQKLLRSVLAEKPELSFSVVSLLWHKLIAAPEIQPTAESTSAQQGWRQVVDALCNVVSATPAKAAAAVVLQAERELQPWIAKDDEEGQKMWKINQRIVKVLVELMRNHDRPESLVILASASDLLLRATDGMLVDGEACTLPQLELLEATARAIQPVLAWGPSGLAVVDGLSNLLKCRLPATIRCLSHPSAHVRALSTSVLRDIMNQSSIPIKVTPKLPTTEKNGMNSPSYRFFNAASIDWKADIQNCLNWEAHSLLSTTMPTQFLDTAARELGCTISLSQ

Protein sequences, listed by entry. Tags and fused reporters are not part of them.
UniProt Q94BT6: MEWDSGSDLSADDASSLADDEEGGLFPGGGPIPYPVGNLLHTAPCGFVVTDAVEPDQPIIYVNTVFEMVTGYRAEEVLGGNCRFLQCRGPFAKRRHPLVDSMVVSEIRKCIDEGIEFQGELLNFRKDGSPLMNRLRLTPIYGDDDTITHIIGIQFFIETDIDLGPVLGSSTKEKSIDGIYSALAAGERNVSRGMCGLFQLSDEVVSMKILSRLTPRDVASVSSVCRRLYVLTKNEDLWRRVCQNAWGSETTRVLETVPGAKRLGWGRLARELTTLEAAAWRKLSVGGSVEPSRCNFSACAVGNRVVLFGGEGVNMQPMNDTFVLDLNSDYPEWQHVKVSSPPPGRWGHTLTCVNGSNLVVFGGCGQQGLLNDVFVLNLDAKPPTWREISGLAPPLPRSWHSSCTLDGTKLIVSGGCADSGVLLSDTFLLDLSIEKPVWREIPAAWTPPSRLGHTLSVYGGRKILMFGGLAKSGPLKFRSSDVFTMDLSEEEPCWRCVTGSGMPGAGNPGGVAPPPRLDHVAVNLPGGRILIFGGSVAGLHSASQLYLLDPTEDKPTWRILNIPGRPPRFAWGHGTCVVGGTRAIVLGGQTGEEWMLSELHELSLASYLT
UniProt Q9C9W9: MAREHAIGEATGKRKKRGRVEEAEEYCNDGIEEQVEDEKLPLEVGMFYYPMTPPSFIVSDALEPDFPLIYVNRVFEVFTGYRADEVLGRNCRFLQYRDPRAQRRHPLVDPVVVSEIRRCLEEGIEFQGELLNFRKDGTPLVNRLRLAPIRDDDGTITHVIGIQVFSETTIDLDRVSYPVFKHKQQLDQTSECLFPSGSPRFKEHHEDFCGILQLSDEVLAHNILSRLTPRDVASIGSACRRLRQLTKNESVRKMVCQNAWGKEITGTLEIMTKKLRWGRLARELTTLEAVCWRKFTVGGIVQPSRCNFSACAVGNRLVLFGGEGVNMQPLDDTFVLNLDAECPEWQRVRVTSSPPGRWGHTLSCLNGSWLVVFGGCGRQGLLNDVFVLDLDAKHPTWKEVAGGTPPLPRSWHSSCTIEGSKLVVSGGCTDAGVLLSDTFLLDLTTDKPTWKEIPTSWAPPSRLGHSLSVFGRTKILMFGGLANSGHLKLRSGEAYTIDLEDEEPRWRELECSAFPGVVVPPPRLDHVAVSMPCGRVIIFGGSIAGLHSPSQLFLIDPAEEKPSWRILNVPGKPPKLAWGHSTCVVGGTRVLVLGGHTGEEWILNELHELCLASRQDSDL
UniProt Q39057: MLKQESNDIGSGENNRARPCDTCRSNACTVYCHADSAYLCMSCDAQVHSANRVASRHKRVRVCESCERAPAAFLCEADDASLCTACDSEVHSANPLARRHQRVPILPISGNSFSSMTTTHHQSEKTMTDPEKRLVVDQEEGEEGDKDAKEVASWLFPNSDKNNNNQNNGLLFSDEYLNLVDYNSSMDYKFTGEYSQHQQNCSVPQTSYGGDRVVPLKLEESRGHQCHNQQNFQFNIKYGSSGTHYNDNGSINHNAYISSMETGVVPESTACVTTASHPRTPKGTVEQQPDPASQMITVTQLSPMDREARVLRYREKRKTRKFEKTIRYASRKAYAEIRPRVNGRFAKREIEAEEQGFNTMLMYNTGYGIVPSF

Row | binding [1] | binding [2] | binding [3] | binding [4] | Substance
1 | binds | binds | binds | – | FKF1 (FLAVIN-BINDING, KELCH REPEAT, F-BOX 1), wild type, transiently overexpressed in Nicotiana benthamiana (from UniProt Q9C9W9 1-619)
2 | – | – | – | binds | HA-FKF1, wild type, expressed from the FKF1 promoter in transgenic Arabidopsis (from UniProt Q9C9W9 1-619)

— paper PMC11026275
